Measurements reported in paper PMC6190337.

Columns and labels:
cytochrome c [1] = assay: AuNR-LSPR sandwich assay (aggregation ratio 760/630 nm); settings: cyto-c 0-100 ng/mL on MMP-antibody, LOD 0.1 ng/mL (not a Kd); 5'-biotin-TEG; MMP-Ab blocking/wash buffer 10 mM HEPES, 75 mM NaCl, 5 mM MgCl2, 1 mM CaCl2, pH 7.4 (wash + 0.1% Tween-20, then water); cyto-c in PBS, 10% serum or RPMI-1640 + 20% FBS; commercial protein; label: biotin, bound to streptavidin-PEG-gold nanorod; single-stranded DNA
cytochrome c [2] = assay: confocal microscopy of GFP-tagged AuNR-aptamer on MMP-Ab; settings: fluorescence only when cyto-c present, GFP on nanorod; 5'-biotin-TEG; MMP-Ab blocking/wash buffer 10 mM HEPES, 75 mM NaCl, 5 mM MgCl2, 1 mM CaCl2, pH 7.4 (wash + 0.1% Tween-20, then water); cyto-c in PBS, 10% serum or RPMI-1640 + 20% FBS; commercial protein; label: biotin, bound to streptavidin-PEG-gold nanorod; single-stranded DNA

**Q.** Which results are given for “ATCGATAAGCTTCCAGAGCCGTGTCTGGGGCCGACCGGCGCATTGGGTACGTTGTTGCCGTAGAATTCCTGCAGCC [76-mer cyto-c aptamer]”?
**A.** binding result (cytochrome c [1]): binds; binding result (cytochrome c [2]): binds

For at least one entry, the source does not settle the construct or the ends of the probe.
